Primary screen of a compound library

By UniProt entry, the sequences of proteins in these tests, tags left out.
UniProt P9WPC5, whole entry: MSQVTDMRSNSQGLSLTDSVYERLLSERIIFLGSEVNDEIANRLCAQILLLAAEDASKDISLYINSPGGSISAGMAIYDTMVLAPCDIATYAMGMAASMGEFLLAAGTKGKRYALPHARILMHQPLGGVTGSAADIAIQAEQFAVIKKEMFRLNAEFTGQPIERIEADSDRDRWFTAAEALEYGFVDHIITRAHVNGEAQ
UniProt P9WPC3, whole entry partner: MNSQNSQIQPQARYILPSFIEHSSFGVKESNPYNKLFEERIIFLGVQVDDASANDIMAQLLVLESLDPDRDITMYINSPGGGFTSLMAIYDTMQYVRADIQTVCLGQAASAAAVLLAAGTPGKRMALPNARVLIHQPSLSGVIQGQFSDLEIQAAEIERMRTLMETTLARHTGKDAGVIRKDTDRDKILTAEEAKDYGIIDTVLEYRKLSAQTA
UniProt I6X8D2, whole entry: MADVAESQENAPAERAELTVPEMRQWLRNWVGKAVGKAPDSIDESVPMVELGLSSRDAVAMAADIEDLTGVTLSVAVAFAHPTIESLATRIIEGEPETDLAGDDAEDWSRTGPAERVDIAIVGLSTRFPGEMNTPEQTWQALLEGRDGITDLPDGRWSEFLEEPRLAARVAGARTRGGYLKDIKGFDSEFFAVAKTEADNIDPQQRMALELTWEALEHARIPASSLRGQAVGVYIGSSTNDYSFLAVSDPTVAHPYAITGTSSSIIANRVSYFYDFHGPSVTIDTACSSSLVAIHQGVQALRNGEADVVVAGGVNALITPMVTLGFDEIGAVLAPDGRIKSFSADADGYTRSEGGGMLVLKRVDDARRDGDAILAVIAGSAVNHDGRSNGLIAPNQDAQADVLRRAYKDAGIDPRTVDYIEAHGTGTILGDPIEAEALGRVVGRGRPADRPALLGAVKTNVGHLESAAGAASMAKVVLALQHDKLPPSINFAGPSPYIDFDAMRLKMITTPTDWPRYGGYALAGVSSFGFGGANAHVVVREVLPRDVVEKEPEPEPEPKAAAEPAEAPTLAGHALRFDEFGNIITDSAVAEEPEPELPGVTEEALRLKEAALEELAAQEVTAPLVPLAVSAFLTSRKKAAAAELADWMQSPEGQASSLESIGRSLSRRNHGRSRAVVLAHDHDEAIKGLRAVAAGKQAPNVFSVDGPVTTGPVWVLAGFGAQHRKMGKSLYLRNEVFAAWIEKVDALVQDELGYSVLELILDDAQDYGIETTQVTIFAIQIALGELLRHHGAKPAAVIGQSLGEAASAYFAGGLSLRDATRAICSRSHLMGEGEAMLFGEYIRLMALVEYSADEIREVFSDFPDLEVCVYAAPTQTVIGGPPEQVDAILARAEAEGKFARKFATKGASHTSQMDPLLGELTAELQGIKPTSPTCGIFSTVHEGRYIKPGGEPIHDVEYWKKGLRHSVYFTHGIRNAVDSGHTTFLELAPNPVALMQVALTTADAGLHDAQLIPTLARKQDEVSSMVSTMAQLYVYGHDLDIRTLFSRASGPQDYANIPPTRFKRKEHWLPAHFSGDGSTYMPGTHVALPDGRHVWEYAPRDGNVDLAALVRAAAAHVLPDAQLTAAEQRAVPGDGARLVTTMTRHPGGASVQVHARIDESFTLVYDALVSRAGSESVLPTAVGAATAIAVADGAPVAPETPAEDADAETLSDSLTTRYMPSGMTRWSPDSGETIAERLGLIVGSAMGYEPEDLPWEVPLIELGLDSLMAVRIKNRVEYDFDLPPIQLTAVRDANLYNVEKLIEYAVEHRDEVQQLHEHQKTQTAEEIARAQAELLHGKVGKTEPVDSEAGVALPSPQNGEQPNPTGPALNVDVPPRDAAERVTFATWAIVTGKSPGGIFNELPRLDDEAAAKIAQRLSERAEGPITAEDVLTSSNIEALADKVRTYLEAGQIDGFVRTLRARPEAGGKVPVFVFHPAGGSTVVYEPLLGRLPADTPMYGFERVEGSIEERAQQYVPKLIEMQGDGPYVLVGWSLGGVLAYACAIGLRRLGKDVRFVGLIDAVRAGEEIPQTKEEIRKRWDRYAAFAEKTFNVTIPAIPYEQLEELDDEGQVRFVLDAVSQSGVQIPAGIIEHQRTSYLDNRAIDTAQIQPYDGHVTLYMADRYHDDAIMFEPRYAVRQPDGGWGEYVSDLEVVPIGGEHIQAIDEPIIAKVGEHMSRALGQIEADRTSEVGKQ

Data taken from ChEMBL document CHEMBL3988442, “University of Dundee, Small-Polar-MMV Screening Library” (2021).

ClpP1P2: 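Protease assay of ClpP1P2, read by the AMC dye that it sets free. Target: ClpP1P2, Mycobacterium tuberculosis (UniProt P9WPC5 and UniProt P9WPC3). Compounds at 50 µM. Direction is inferred from only a few compounds that gave an IC50; most scored high, so higher reads as stronger inhibition. Most other retested compounds had strongly negative values. About 69,000 compounds were tested under these conditions; 0.015% (about 10) showed 50% or more at least once.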
Pks13 thioesterase: 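Polyketide synthase Pks13, Mycobacterium tuberculosis (UniProt I6X8D2). Enzyme assay of the thioesterase domain of polyketide synthase 13; the read-out is not stated. Compounds at 30 µM. Higher reads as stronger inhibition (inferred from which compounds were picked for retests). Size under these conditions: about 67,000 compounds, about 300 of them at 50% or above in at least one test.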

Results are given as percent effect. How 0% and 100% were set is not recorded. Most values in the screen are low, and negative values occur. The compounds are a random part of those screened.

structure: O=C(c1ccc(C2CCCN2C(=O)c2ccc[nH]2)s1)N1CCSCC1 (configuration not stated)
ClpP1P2: 1.013
Pks13 thioesterase: -8.045

structure: Cc1noc2ncc(C(=O)NCC3CCOC3)cc12 (configuration not stated)
ClpP1P2: 6.462
Pks13 thioesterase: -11.34

structure: Cc1nccn1C1CCCN(C(=O)c2ccc3nnc(C)n3c2)C1 (configuration not stated)
ClpP1P2: -24.15
Pks13 thioesterase: -19.96

structure: COCCn1ccnc1C1CCCN(C(=O)c2ccncc2F)C1 (configuration not stated)
ClpP1P2: -3.551
Pks13 thioesterase: 27.08

structure: Cc1nc(C)c(CC(=O)N2C[C@@H]3CC[C@H](C2)N(CC2CCC2)C3)c(=O)[nH]1
ClpP1P2: -2.126
Pks13 thioesterase: -17.3

structure: CNc1ncc2c(n1)CN(C1CC(C)(C)NC(C)(C)C1)C2=O
ClpP1P2: 5.216
Pks13 thioesterase: -4.505

structure: CC1CCN(C(CNC(=O)CCn2cccn2)c2cccs2)CC1 (configuration not stated)
ClpP1P2: 0.1892
Pks13 thioesterase: -17.99

structure: CC(C)CN1CCCC2(CCN(c3ccccn3)C2)C1 (configuration not stated)
ClpP1P2: 16.8
Pks13 thioesterase: -6.499

structure: Cc1cnc(C)c(N2CC[C@H](N3CCOCC3)[C@H](CCCO)C2)n1
ClpP1P2: -2.113
Pks13 thioesterase: -25.69

structure: CC(C)C(=O)Nc1ccc2c(c1)ncn2CC(=O)NCCN(C)C
ClpP1P2: 12.72
Pks13 thioesterase: -6.023

structure: c1cnc(N2CCOCC3(CCCN(c4nncs4)C3)C2)cn1 (configuration not stated)
ClpP1P2: -3.905
Pks13 thioesterase: 6.352

structure: Cc1cc(NCc2ccccc2)nc2[nH]nc(N)c12
ClpP1P2: -7.368
Pks13 thioesterase: -61.11

structure: Nc1cc(-c2cc(C(=O)O)ccc2Cl)c2cc[nH]c2n1
ClpP1P2: -3.988
Pks13 thioesterase: 19.27

structure: CCn1cc(CN2CCC(C3CCN(C)CC3)CC2)cc1C#N
ClpP1P2: -5.848
Pks13 thioesterase: -8.392

structure: COC(=O)NCC(=O)N1CCC(c2cc3ccccc3[nH]2)CC1
ClpP1P2: -8.853
Pks13 thioesterase: -22.51

structure: Cc1nccc(CN2CC[C@@]3(CCCN3Cc3ccccc3)[C@@H](O)C2)n1
ClpP1P2: -3.975
Pks13 thioesterase: 4.364

structure: Cc1cc(-c2cnn(CCNC(=O)Cc3ccccn3)c2C2CC2)on1
ClpP1P2: 8.601
Pks13 thioesterase: -2.777

structure: CCOc1cccc(CNc2cncc(-n3cccn3)n2)c1
ClpP1P2: -22.95
Pks13 thioesterase: -63.07

structure: O=C(CCc1nc(Cl)n[nH]1)N1C[C@@H](CN2CCCCCC2)[C@@H](CO)C1
ClpP1P2: -2.105
Pks13 thioesterase: -41.16

structure: CCN(C(=O)C(C)C)C(c1cccnc1)c1ccc2c(c1)CCO2 (configuration not stated)
ClpP1P2: -13.55
Pks13 thioesterase: 2.472

structure: COCCn1ccc(=O)c(OCC(=O)Nc2ccc(OC)c(Cl)c2)c1C
ClpP1P2: -2.714
Pks13 thioesterase: -4.524

structure: Cn1cc(C(=O)N2CCC(c3cc(CCO)n(C)n3)C2)cn1 (configuration not stated)
ClpP1P2: -22.48
Pks13 thioesterase: -10.41

structure: Cc1csc(NC(=O)c2cnc(C3CCCN(C)C3)cn2)n1 (configuration not stated)
ClpP1P2: -3.892
Pks13 thioesterase: 11.57

structure: Cc1cccc(N2CCCC3(C2)CN(c2nncs2)CCO3)c1 (configuration not stated)
ClpP1P2: 5.609
Pks13 thioesterase: -4.606

structure: CCN1CCN(C(=O)c2scnc2C)CC1
ClpP1P2: -6.096
Pks13 thioesterase: -7.729

structure: Cc1cc(NC2CCC(=O)N(C)C2)n2nccc2n1 (configuration not stated)
ClpP1P2: -4.394
Pks13 thioesterase: -20.14

structure: CC(C)C1CN(c2cccc(C#N)n2)CCCN1Cc1ccc(F)cc1 (configuration not stated)
ClpP1P2: -24.89
Pks13 thioesterase: 24.95

structure: CCNC(=O)NC[C@H]1C[C@@H]2CCN1C[C@@H]2c1cc(-c2cccs2)nn1C
ClpP1P2: -3.92
Pks13 thioesterase: -33.2

structure: Nc1c(C(=O)C2CCCN(C(=O)C3CC3)C2)cnn1-c1ccc(F)cc1 (configuration not stated)
ClpP1P2: -3.554
Pks13 thioesterase: 3.449

structure: CCN(CC)Cc1nc2c(o1)CN(C(=O)c1ccncc1F)C2
ClpP1P2: 4.907
Pks13 thioesterase: -4.519

structure: CC(C)NC(=O)N1CCN(C(=O)NC(C)C)CC2(CNC(=O)C2)C1
ClpP1P2: 7.57
Pks13 thioesterase: 4.831

structure: Cn1nc(Cl)cc1C(=O)N1CCC(C(=O)c2nc3ccccc3s2)CC1
ClpP1P2: 2.052
Pks13 thioesterase: 35.93

For reference, 3 entries once more:

{"structure": "c1cnc(N2CCOCC3(CCCN(c4nncs4)C3)C2)cn1", "stereo": "configuration not stated", "ClpP1P2": -3.905, "Pks13 thioesterase": 6.352}
{"structure": "CCOc1cccc(CNc2cncc(-n3cccn3)n2)c1", "ClpP1P2": -22.95, "Pks13 thioesterase": -63.07}
{"structure": "Nc1c(C(=O)C2CCCN(C(=O)C3CC3)C2)cnn1-c1ccc(F)cc1", "stereo": "configuration not stated", "ClpP1P2": -3.554, "Pks13 thioesterase": 3.449}